Assay results reported in patent US20210380697A1 (HUMMINGBIRD BIOSCIENCE PTE, published 2021).
These are yes or no findings as the source states them, for the method shown. Some binding calls cover weakened binding; strength is not graded here.

B1: anti-VISTA clone V4-C24 IgG1 (antibody, V domains shown)
VH: QVQLQESGPGLVKPSDTLSLTCTVSGYSITSDYTWNWIRQTPGKGLEWIGHITYSGSVSYNPSLRSRVTISRDTSKNQFSLKLSSVTAADTATYSCARALYYPWYFDVWGTGTTVTVSS
VL: EIVLTQSPATLSLSPGERATLSCRASSSVGYIHWYQQKPGQAPRPLIYTTSYRATGIPARFSGSGSGTDNTLTISSLEPEDSAVYYCQQWSSYPPITFGGGTKLEVKR
B2: anti-VISTA clone V4-C26 IgG1 (antibody, V domains shown)
VH: QVQLQESGPGLVKPSDTLSLTCTVSGYSITSDYTWNWIRQTPGKGLEWIGHITYSGSVSYNPSLRSRVTISRDTSKNQFSLKLSSVTAADTATYSCARALYYPWYFDVWGTGTTVTVSS
VL: EIVLTQSPATLSLSPGERATLSCRASSSVGYIHWYQQKPGQAPRPIIYTTSNRATGIPARFSGSGSGTDNTLTISSLEPEDSAVYYCQQWSSYPPITFGGGTKLEVKR
B3: anti-VISTA clone V4-C27 IgG1 (antibody, V domains shown)
VH: QVQLQESGPGLVKPSDTLSLTCTVSGYSITSDYTWNWIRQTPGKGLEWIGHITYSGSVSYNPSLRSRVTISRDTSKNQFSLKLSSVTAADTATYSCARALYYPWYFDVWGTGTTVTVSS
VL: EIVLTQSPATLSLSPGERATLSCRASSSVGYIHWYQQKPGQAPRPLIYATYNRATGIPARFSGSGSGTDNTLTISSLEPEDSAVYYCQQWSSYPPITFGGGTKLEVKR
B4: anti-VISTA clone V4-C28 IgG1 (antibody, V domains shown)
VH: QVQLQESGPGLVKPSDTLSLTCTVSGYSITSDYTWNWIRQTPGKGLEWIGHITYSGSVSYNPSLRSRVTISRDTSKNQFSLKLSSVTAADTATYSCARALYYPWYFDVWGTGTTVTVSS
VL: EIVLTQSPATLSLSPGERATLSCRASSSVGYIHWYQQKPGQAPRPLIYATSYRATGIPARFSGSGSGTDNTLTISSLEPEDSAVYYCQQWSSYPPITFGGGTKLEVKR
B5: anti-VISTA clone V4-C30 IgG1 (antibody, V domains shown)
VH: QVQLQESGPGLVKPSDTLSLTCTVSGYSITSDYTWNWIRQTPGKGLEWIGHITYSGSVSYNPSLRSRVTISRDTSKNQFSLKLSSVTAADTATYSCARALYYPWYFDVWGTGTTVTVSS
VL: EIVLTQSPATLSLSPGERATLSCRASSSVGYIHWYQQKPGQAPRPLIYATYYRATGIPARFSGSGSGTDNTLTISSLEPEDSAVYYCQQWSSYPPITFGGGTKLEVKR
B6: anti-VISTA clone V4-C31 IgG1 (antibody, V domains shown)
VH: QVQLQESGPGLVKPSDTLSLTCTVSGYSITSDYTWNWIRQTPGKGLEWIGHITYSGSVSYNPSLRSRVTISRDTSKNQFSLKLSSVTAADTATYSCARALYYPWYFDVWGTGTTVTVSS
VL: EIVLTQSPATLSLSPGERATLSCRASSSVGYIHWYQQKPGQAPRPLIYATYYRTTGIPARFSGSGSGTDNTLTISSLEPEDSAVYYCQQWSSYPPITFGGGTKLEVKR

target: cynomolgus macaque VISTA polypeptide (ELISA) (cynomolgus macaque); assay: ELISA

Question: How did the binding turn out when B1 was run?
Answer: The binding was “binds”.

Question: With B2 as the binder, how does the binding read?
Answer: Its binding is “binds”.

Question: B3 was tested. Which binding did it give?
Answer: Its binding is “binds”.

Question: How did the binding turn out when B4 was run?
Answer: The binding was “binds”.

Question: How did the binding turn out when B5 was run?
Answer: Its binding is “binds”.

Question: For B6, which binding is on record?
Answer: The binding was “binds”.
